One substance from paper PMC7447769 can be followed below.

This test concerns the target T1, green fluorescent protein (GFP)/Smad Interacting Protein 1 (SIP1) (UniProt O60315).
T1 sequence: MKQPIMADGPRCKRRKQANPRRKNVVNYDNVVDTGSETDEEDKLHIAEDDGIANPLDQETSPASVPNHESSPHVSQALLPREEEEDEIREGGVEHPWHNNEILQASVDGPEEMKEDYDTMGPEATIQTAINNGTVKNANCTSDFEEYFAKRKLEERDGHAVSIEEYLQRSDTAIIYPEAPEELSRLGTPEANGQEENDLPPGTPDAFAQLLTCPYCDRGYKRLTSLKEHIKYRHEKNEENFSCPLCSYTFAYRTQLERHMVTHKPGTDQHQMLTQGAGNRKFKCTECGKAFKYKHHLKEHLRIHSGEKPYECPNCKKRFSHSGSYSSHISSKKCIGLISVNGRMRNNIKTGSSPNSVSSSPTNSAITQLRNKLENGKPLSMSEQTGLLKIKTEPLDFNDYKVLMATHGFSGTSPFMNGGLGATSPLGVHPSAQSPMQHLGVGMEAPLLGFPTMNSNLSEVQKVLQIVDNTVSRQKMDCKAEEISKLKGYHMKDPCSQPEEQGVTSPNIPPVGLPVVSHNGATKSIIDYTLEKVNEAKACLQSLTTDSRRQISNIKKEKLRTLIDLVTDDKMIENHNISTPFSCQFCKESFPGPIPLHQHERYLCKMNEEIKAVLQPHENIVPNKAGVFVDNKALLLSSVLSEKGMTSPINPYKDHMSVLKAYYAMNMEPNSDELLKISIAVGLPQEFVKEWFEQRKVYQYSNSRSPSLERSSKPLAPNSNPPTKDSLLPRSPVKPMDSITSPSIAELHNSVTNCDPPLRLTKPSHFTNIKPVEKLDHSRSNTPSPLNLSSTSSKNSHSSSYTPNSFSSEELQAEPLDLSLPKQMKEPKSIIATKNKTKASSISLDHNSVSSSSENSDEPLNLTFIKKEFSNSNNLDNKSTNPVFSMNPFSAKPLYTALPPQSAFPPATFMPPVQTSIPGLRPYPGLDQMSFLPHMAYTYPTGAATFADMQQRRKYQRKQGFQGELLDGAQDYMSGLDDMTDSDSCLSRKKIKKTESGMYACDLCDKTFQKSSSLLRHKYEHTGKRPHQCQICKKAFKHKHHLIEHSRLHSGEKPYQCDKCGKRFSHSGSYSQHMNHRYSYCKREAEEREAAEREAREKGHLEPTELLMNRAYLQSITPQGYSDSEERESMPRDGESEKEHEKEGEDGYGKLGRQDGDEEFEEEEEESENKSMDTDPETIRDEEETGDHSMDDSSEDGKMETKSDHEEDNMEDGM
The test is described as follows: co-IP; 293T cells co-transfected with Rluc/TCF7L2E2 (or Rluc alone) and GFP/SIP1 (or GFP alone); immunoprecipitation with anti-SIP1 or IgG, Renilla luciferase activity on 90% of the immunocomplexes, normalised to input, IgG subtracted.

Results are given in words; binding and its absence hold for the method and conditions named. In cells and extracts the contact can be indirect. Binding can be weak; no strength is given. Sequences can lack the tags named with a protein.

“Rluc/TCF7L2E2 (Renilla luciferase in fusion with TCF7L2E2) (mouse)”: the binding entry is on record as “binds”.
